Assay results taken from patent US10450368.
Results are given in words; binding and its absence hold for the method and conditions named. For some assays here: A result given as binding can be weak or reduced; the word gives no strength.

Experiments:
[1] = molecular target: CH505.TF mutant gp120 M20 (HIV-1); experiment: ELISA
[2] = molecular target: CH505.TF mutant gp120 M6 (HIV-1); experiment: ELISA of B cell culture supernatant
[3] = molecular target: CH505.TF mutant gp120 M6 (HIV-1); experiment: direct-binding ELISA (OD450), panel 'CH505.TF gp120 M6'
[4] = molecular target: CH505.TF mutant gp120 M8 (HIV-1); experiment: ELISA
[5] = molecular target: CH505.TF mutant gp120 M8 (HIV-1); experiment: direct-binding ELISA (OD450), panel 'CH505.TF gp120 M8'
SSA [6] = experiment: condition: <100 relative luminescence units; up to 50 ug/ml; AtheNA Multi-Lyte ANA
RNP (ribonucleoprotein) [7] = experiment: as above
Sm (Smith antigen) [8] = experiment: as above
SSA [9] = experiment: ELISA, LogAUC grade
RNP (ribonucleoprotein) [10] = experiment: ELISA, LogAUC grade
Sm (Smith antigen) [11] = experiment: ELISA, LogAUC grade

B1: CH557 (antibody, V domains shown)
VH: QVRLAQYGGGVKRLGATMTLSCVASGYTFNDYYIHWVRQAPGQGFELLGYIDPANGRPDYAGALRERLSFYRDKSMETLYMDLRSLRYDDTAMYYCVRNVGTAGSLLHYDHWGSGSPVIVSS
VL: EIVLTQSPATLSASPGERVTLTCRASRSVRNNVAWYQHKGGQSPRLLIYDASTRAAGVPARFSGSASGTEFTLAISNLESEDFTVYFCLQYNNWWTFGQGTRVDIK
- binding [1]: no binding (tested: 100 ug/ml)
- binding [2]: binds

B2: CH235 (antibody, V domains shown)
VH: QVQLVQSGAEVKKPGASVTVSCQASGYTFTNYYVHWVRQAPGQGLQLMGWIDPSWGRTNYAQNFQGRITMTRDTSTSTVYMEMRSLRSEDTAVYYCARNVATEGSLLHYDYWGQGTLVTVSA
VL: EIVLTQSPATLSVSPGERATLSCRASQSVRSNLAWYQQRPGQAPRLLIYGTSTRATGVPARFSGRGSGTEFTLAISSMQSEDFAVYLCLQYNNWWTFGQGTKVEIK
- binding [3]: binds
- binding [1]: no binding (tested: 100 ug/ml)
- binding [4]: no binding (tested: 100 ug/ml)
- binding [5]: no binding (tested: 100 ug/ml)
- binding (SSA [6]): no binding
- binding (RNP (ribonucleoprotein) [7]): no binding
- binding (Sm (Smith antigen) [8]): no binding

B3: CH491 (antibody, V domains shown)
VH: QVQLVQSGAAVKRPGASVTISCRASGYTFTTYYIHWVRQAPGQGLELMGWINPRGGRTDYSYRFEDRVSMYRDTSMSIVYMDLRNLKSADTAVYYCVRNVGTSGSLLHYDFWGQGSLVTVSS
VL: EIVLTQSPATLSVSPGERVTLSCRASQSVRNNLAWYRQKRGQAPRLLIYGASTRATGIPARFSGSGSGTEFTLTISSMQSEDFAVYYCQQYNNWWTFGQGTKVEIK
- binding [3]: binds
- binding [1]: no binding (tested: 100 ug/ml)
- binding [4]: no binding (tested: 100 ug/ml)
- binding [5]: no binding (tested: 100 ug/ml)

B4: CH236 (antibody, V domains shown)
VH: QVQLVQSGAAVKRPGASVTISCRASGYTFTTYYIHWVRQAPGQRLELMGMIDPSRGRTDYAQKFQGRVTMSRDTSTSTLYMELRSLRPDDTALYYCVRNVGTEGSLLHYDYWGQGTLVTVSS
VL: EIVLTQSPATLSVSPGERVTLSCRASQSVRNNLAWYRQKRGQAPRLLIYGASTRATGIPARFSGSGSGTEFTLTISSMQSEDFAVYYCQQYNNWWTFGQGTKVEIK
- binding [1]: no binding (tested: 100 ug/ml)
- binding [4]: no binding (tested: 100 ug/ml)
- binding (RNP (ribonucleoprotein) [7]): no binding

B5: CH493 (antibody, V domains shown)
VH: QVRLLQYGGGVKRPGASMTISCVASGYNFNDYYIHWVRQAPGQGLELMGWIDPSGGRTDYAGAFGDRVSMYRDKSMNTLYMDLRSLRSGDTAMYYCVRNVGTAGSLLHYDHWGLGVMVTVSS
VL: EIVLTQSPATLSVSPGERVTLSCRASQSVRNNLAWYRQKRGQAPRLLIYGASTRATGIPARFSGSGSGTEFTLTISSMQSEDFAVYYCQQYNNWWTFGQGTKVEIK
- binding [3]: binds
- binding [5]: binds

B6: CH490 (antibody, V domains shown)
VH: QVQLVQSGAAVKKPGASVRVSCKASGYTFTSSHIHWVRQAPGQALEWLGMIDPRFGRPTRPQKFQGRVTLTRDTYTTTVYMSLSSLTPEDTAVYYCARSVETSESYLHFDYWGQGTLVTVSS
VL: EIVLTQSPATLSVSPGERATLSCRASQSVRSNIAWYQQKPGQAPRLLIHGASTRATGIPGRFSGSGSGPEFTLAISSVQSEDFAVYYCQQYNDWWTFGQGTKVEIK
- binding [3]: binds
- binding [5]: no binding (tested: 100 ug/ml)

B7: CH241 (antibody, V domains shown)
VH: QVQLVQSGAAVKKPGASVRVSCKASGYTFTSSHIHWVRQAPGQGPEWMGMIDPSVGRPTTAGKFQGRVTMTRDRYTSTAYMDLSSLRSEDTAVYYCARSVETTGSLLYFDYWGQGTLITVSS
VL: EIVLTQSPATLSVSPGERATLSCRASQSVRSNIAWYQQKPGQAPRLLIHGASTRATGIPGRFSGSGSGPEFTLAISSVQSEDFAVYYCQQYNDWWTFGQGTKVEIK
- binding (SSA [6]): no binding
- binding (RNP (ribonucleoprotein) [7]): no binding
- binding (Sm (Smith antigen) [8]): no binding

B8: CH492 (antibody, V domains shown)
VH: QVQLVQSGAAVKKPGASVRVSCKASGYTFTSSHIHWVRQAPGQGPEWMGMVDPRFGRPTYAQKFQGRVAMTRDIYTSTVYMDLRSLKSEDTAIYFCVRNAETEGSLLHIEYWGQGTRVTVSS
VL: EIVLTQSPATLSVSPGERATLSCRASQSVRSNIAWYQQKPGQAPRLLIHGASTRATGIPGRFSGSGSGPEFTLAISSVQSEDFAVYYCQQYNDWWTFGQGTKVEIK
- binding [3]: binds
- binding [5]: binds

B9: CH555 (antibody, V domains shown)
VH: QVQLVQSGATVKKPRASVTLSCRTSGYNFIDYFIHWVRRAPGQRLEVMGYIDPSRGRPDYAPNFRDRVSLYRDTSMSIVYLDLRDLTPDDTAIYYCVRSEGTEGTVLHYDHWGPGTRVTVSP
VL: EIVLTQSPDTLSASPGERVTLSCRASQSVGTKVAWYRHVRGQPPRLLIYGASTRAAGIPARFSGGGSGTNFTLIINNFQSEDFAEYLCQQYKSWWTFGQGTKVDNK
- binding [1]: no binding (tested: 100 ug/ml)
- binding [4]: no binding (tested: 100 ug/ml)
- binding (SSA [9]): no binding
- binding (RNP (ribonucleoprotein) [10]): no binding
- binding (Sm (Smith antigen) [11]): no binding

B10: CH556 (antibody, V domains shown)
VH: QVQLVQSGGTVKSPGTSVTLSCKTSGYNFIDYYIHWVRRAPGQRPELMGYIDPSHGRPDYEGKFRDRISLYRDTSTSVVYMDVRGLRLDDTALYYCVRGGGVEVSSNHYDHWGPGTMVFVSP
VL: ETTLTQSPDTLSASPGERVTLSCRAAQSVGSQVAWFRHIRGQPPRLLISGASTRAAGVPARFSGSGSGTDFTLTISGMQSEDFAEYFCQQYHMWWTFGQGTRVDKN
- binding (SSA [9]): no binding
- binding (RNP (ribonucleoprotein) [10]): no binding
- binding (Sm (Smith antigen) [11]): no binding

B11: CH235.13 (antibody, V domains shown)
VH: QVQLVQSGGGVKRPGSTTTISCVASGYSFNDYYIHWVRQAPGQGLEVLGFIDPSNGRTNYAGAFGDRFSMYRDKSMETLYMDLRNLRSDDTAMYYCVRNVGTAGSLLHYDHWGTGSKIIVSS
VL: EIVLTQSPATLSASPGERVTLTCRASRGVRNNVAWYQHNVGQSPRLLIYDASTRAPGIPARFSGSASGTEFTLAISSIQSEDFTLYYCHQYNNWWTFGQGTRVDIN
- binding [1]: no binding (tested: 100 ug/ml)
- binding [4]: no binding (tested: 100 ug/ml)
- binding (SSA [9]): no binding
- binding (RNP (ribonucleoprotein) [10]): no binding
- binding (Sm (Smith antigen) [11]): no binding
